Taken from: PubChem BioAssay AID1508597 (Cure First, 2020)
Assay: 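Knock-downs altering ovarian cancer cell survival with or without PARP inhibitor rucaparib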 (primary screen). System: human ovarian carcinoma lines grown from tumours: OCI-P5x (papillary serous) and OCI-C5x (clear cell). Knock-down reagent: siRNA pool against human genes, 1.25 pmol siRNA per well. Timing: 72 h or 96 h, depending on the cell culture. Treatment: rucaparib 20 µM (about IC30) or vehicle, present until read-out. Read-out: 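Luminescent ATP-based viability assay read 72 or 96 h after transfection, depending on culture, given as normalised percent viability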. Reading the numbers: viability, normalised: higher = more viable cells remaining. Call rule: 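Active when normalised viability falls below 80 percent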. Meaning of the calls: active = viability under 80%; inactive = viability 80% or more.
In all, the deposit lists about 2,100 reagents; this is a random part of them. 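Calls flag viability under 80% in either arm, not effects specific to rucaparib; the reference for percent is not stated.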 Unmarked entries are inactive. Not given: the 100% reference.

gene,rucaparib or vehicle,cell line,technical replicate,"viability, normalised (%)"
CCNK,Rucaparib,OCI-C5x (clear cell),1,46.2 (active)
CCNK,Rucaparib,OCI-C5x (clear cell),2,57.6 (active)
CCNK,Rucaparib,OCI-C5x (clear cell),3,45.8 (active)
CCNK,Rucaparib,OCI-P5x (serous),1,75.6 (active)
CCNK,Rucaparib,OCI-P5x (serous),2,59 (active)
CCNK,Rucaparib,OCI-P5x (serous),3,58.2 (active)
CCNK,Vehicle,OCI-C5x (clear cell),1,58.1 (active)
CCNK,Vehicle,OCI-C5x (clear cell),2,57.5 (active)
CCNK,Vehicle,OCI-C5x (clear cell),3,39.7 (active)
CCNK,Vehicle,OCI-P5x (serous),1,63 (active)
CCNK,Vehicle,OCI-P5x (serous),2,60.1 (active)
CCNK,Vehicle,OCI-P5x (serous),3,54 (active)
SLK,Rucaparib,OCI-C5x (clear cell),1,46.4 (active)
SLK,Rucaparib,OCI-C5x (clear cell),2,54 (active)
SLK,Rucaparib,OCI-C5x (clear cell),3,43.4 (active)
SLK,Rucaparib,OCI-P5x (serous),1,69.5 (active)
SLK,Rucaparib,OCI-P5x (serous),2,88.3
SLK,Rucaparib,OCI-P5x (serous),3,81.5
SLK,Vehicle,OCI-C5x (clear cell),1,60.4 (active)
SLK,Vehicle,OCI-C5x (clear cell),2,47.2 (active)
SLK,Vehicle,OCI-C5x (clear cell),3,43.5 (active)
SLK,Vehicle,OCI-P5x (serous),1,65.9 (active)
SLK,Vehicle,OCI-P5x (serous),2,70.3 (active)
SLK,Vehicle,OCI-P5x (serous),3,63.4 (active)
